{"sequences": {"note": "Protein sequences, listed by entry. Tags and fused reporters are not part of them.", "UniProt Q13547, whole entry": "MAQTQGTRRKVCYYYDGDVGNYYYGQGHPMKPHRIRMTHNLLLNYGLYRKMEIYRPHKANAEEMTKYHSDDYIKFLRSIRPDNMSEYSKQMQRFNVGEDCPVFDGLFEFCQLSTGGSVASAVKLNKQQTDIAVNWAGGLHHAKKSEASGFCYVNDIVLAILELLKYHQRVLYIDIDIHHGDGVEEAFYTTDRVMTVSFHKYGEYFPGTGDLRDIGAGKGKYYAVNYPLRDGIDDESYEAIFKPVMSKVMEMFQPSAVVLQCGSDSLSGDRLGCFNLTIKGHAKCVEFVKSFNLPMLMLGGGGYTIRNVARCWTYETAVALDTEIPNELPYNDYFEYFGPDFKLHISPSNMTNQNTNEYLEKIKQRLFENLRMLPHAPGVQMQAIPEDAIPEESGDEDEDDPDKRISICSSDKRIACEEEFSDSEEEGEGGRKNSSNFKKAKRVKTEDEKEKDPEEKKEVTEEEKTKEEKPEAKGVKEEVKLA"}, "source": "patent US8143282B2", "about": "“Heterocyclic compounds” (S*BIO Pte Ltd., priority 2005, dated 2012)", "key": {"Colo205 cells": {"tested_on": "Colo205 cells", "assay": "Cell-based proliferation assay for GI50 (CyQUANT), Colo205", "details": "read-out: Cellular or Growth Inhibition Activity in Colo205 cells, GI50, 96 h treatment"}, "HDAC1 enzyme": {"target": "HDAC1 enzyme (Homo sapiens, UniProt Q13547)", "assay": "In vitro HDAC assay for determination of IC50 values (BIOMOL fluorescent-based HDAC activity assay)", "details": "read-out: HDAC1 enzyme activity IC50"}}, "note": "The match of structure and compound is tentative."}
{"smiles": "CCCCc1nc2cc(/C=C/C(=O)NO)ccc2n1C1CCCNC1", "note": "(stereo not drawn)", "values": [{"measurement": "GI50", "setting": "Colo205 cells", "value": 4900, "unit": "nM"}]}
{"smiles": "CCCCCCc1nc2cc(/C=C/C(=O)NO)ccc2n1C1CCCNC1", "note": "(stereo not drawn)", "values": [{"measurement": "GI50", "setting": "Colo205 cells", "value": 1230, "unit": "nM"}, {"measurement": "IC50", "setting": "HDAC1 enzyme", "value": 100, "unit": "nM"}]}
